For this assay, the target named is endogenous PKGIα of C2C12 cells (mouse (endogenous in C2C12)) (UniProt P0C605). As to the kind of experiment: cross-linking; disulfide cross-link at Cys43 in intact H9c2 or C2C12 cells treated with 100 μM H2O2 (1, 2, 4 h) or 500 μM H2O2 (1 h); lysis with 100 mM maleimide, nonreducing SDS-PAGE, Western blot for PKGI. (In general: In western blotting, separated proteins are transferred to a membrane and probed.)

Here are results for one molecule from publication PMC9293632, “PKGIα is activated by metal-dependent oxidation in vitro but not in intact cells” (The Journal of Biological Chemistry, 2022).

No constants are given. Whether binding was seen depends on the method and setting. Binding seen in cells or lysates may run through a third protein. Some binding calls cover weakened binding; strength is not graded here.

B1: endogenous PKGIα of C2C12 cells (enzyme, UniProt P0C605 1-671)
chain: MSELEEDFAKILMLKEERIKELEKRLSEKEEEIQELKRKLHKCQSVLPVPSTHIGPRTTRAQGISAEPQTYRSFHDLRQAFRKFTKSERSKDLIKEAILDNDFMKNLELSQIQEIVDCMYPVEYGKDSCIIKEGDVGSLVYVMEDGKVEVTKEGVKLCTMGPGKVFGELAILYNCTRTATVKTLVNVKLWAIDRQCFQTIMMRTGLIKHTEYMEFLKSVPTFQSLPDEILSKLADVLEETHYENGEYIIRQGARGDTFFIISKGQVNVTREDSPSEDPVFLRTLGKGDWFGEKALQGEDVRTANVIAAEAVTCLVIDRDSFKHLIGGLDDVSNKAYEDAEAKAKYEAEAAFFANLKLSDFNIIDTLGVGGFGRVELVQLKSEESKTFAMKILKKRHIVDTRQQEHIRSEKQIMQGAHSDFIVRLYRTFKDSKYLYMLMEACLGGELWTILRDRGSFEDSTTRFYTACVVEAFAYLHSKGIIYRDLKPENLILDHRGYAKLVDFGFAKKIGFGKKTWTFCGTPEYVAPEIILNKGHDISADYWSLGILMYELLTGSPPFSGPDPMKTYNIILRGIDMIEFPKKIAKNAANLIKKLCRDNPSERLGNLKNGVKDIQKHKWFEGFNWEGLRKGTLTPPIIPSVASPTDTSNFDSFPEDSDEPPPDDNSGWDIDF
For B1, the binding entry is recorded as “binds”.
